# Results are given in words; binding and its absence hold for the method and conditions named. Binding seen in cells or lysates may run through a third protein. These calls come from enrichment with a bait or labelling near it, and not all partners need be listed. Where a sequence is shown, tags or fusion partners need not be part of it.
# Amino acid sequences for entries named in this document (tags omitted).
# UniProt P35177: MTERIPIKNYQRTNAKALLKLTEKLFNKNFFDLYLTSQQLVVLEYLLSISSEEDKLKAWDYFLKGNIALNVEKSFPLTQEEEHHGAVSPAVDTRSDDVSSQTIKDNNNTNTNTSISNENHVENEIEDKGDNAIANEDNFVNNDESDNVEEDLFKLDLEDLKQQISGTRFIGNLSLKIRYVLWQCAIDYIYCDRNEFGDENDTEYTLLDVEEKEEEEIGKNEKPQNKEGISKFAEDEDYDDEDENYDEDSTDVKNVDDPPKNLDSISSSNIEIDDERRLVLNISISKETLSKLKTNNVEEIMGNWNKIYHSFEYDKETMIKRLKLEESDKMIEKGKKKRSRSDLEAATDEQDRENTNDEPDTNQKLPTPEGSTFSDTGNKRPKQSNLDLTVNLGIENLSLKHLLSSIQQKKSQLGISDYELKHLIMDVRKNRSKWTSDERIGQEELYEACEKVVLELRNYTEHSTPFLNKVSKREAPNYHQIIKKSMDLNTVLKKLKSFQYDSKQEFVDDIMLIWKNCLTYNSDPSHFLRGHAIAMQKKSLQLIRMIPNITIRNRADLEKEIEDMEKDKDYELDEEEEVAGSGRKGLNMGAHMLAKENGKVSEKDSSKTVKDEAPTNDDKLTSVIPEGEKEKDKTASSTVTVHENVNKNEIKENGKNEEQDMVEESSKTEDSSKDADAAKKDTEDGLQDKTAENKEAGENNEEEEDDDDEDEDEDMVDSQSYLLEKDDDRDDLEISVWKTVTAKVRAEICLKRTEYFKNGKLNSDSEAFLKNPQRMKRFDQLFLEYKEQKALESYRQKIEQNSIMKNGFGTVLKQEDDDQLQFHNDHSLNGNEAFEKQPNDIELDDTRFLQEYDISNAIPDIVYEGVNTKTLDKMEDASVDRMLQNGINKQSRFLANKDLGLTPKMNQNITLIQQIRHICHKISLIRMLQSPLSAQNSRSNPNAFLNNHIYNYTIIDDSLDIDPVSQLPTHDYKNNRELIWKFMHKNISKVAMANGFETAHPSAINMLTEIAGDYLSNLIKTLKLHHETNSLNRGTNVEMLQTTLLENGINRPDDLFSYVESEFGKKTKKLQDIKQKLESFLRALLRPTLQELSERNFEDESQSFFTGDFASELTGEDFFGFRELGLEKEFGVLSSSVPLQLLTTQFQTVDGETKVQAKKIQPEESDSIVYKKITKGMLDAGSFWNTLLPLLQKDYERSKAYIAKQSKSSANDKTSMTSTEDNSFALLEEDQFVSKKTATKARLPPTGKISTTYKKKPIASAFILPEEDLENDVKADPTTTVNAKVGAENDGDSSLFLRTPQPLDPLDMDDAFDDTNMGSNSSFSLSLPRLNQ
# T1: Ume6 tagged at the carboxy-terminus with TurboID (TurboID-3xMyc) (Saccharomyces cerevisiae) (UniProt P39001)
# T1 sequence: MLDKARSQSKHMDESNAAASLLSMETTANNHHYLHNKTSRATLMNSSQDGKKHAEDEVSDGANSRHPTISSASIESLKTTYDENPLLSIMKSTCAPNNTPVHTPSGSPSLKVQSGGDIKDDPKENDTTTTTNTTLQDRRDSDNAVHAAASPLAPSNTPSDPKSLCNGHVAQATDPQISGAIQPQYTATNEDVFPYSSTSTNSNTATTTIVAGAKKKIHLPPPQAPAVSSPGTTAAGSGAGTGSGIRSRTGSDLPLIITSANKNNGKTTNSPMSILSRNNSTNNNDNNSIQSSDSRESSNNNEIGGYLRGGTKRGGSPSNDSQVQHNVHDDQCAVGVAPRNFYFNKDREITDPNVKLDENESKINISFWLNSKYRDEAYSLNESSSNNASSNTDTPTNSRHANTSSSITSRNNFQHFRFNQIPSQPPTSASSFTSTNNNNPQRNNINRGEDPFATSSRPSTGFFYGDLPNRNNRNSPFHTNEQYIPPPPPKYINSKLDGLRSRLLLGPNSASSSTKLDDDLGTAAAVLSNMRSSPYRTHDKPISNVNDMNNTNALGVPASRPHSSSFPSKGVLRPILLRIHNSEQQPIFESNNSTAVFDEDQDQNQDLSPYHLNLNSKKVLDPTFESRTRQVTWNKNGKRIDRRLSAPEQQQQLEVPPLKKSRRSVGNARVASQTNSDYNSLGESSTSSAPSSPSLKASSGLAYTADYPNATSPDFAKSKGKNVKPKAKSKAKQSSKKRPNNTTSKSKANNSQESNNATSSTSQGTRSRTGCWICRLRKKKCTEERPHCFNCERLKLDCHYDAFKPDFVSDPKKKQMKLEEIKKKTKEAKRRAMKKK
# Molecular target: T1, Ume6 tagged at the carboxy-terminus with TurboID (TurboID-3xMyc) (Saccharomyces cerevisiae)
# Assay: proximity labelling; Ume6 with C-terminal TurboID-3xMyc in living diploid SK1 cells with 50 μM biotin; rich medium (YPD, exponential) or 4 h in SPO; WT, ime1Δ and rim11Δ cells; denatured extracts, streptavidin M280 beads, on-bead trypsin digestion, label-free LC-MS/MS; enrichment against an untagged control
row,binding,Molecule
1,binds,Spt7 (from UniProt P35177 1-1332)
2,binds,"Tod6 (protein, UniProt P34219 1-525) MTLPKLSSVSVSSGHVSANSHGFSILSKHPHPNNLVHSHSLSHTNAKSHLPISSTSTKENSTNKEEAESLKKNNPSSWDPSDDIKLRHLKEIKNLGWKEIAHHFPNRTPNACQFRWRRLKSGNLKSNKTAVIDINKLFGVYATGDATPSAGTPSAEEAVKEEAVEDEDITAGSSAIEDSPPDFKPLVKPKYMDRKLITQRSTSTFSDHEPQHTKPRKLFVKPRSFSHSITTNTPNVKTAQQTNLSLYNTTSAKTNKAVNSNDYENIGLVPKIIIRSRRNSFIPSTQIPHSTTKTRKNSHSVISSRRSSFNMMHSRRSSFNSHAPTEPISRRASLVVSPYMSPRRLSTSQSVHYHPQHQYYLNPIASPNCKTDHANDKITHTRTFLDMQKFANKHPWSREDDEVLLNNTKDKQNHLSPLEISIVLPNNRSELEIQQRMDYLKRKGRVSGFHTNEGCKDEEEEDDIDPLHKENGINTPSQQSQNYGMLEAKHDNPKSSELSSMTSANDIRNEQDELPGINSIFKNIF"

# More lines, now with the values behind:
row,Molecule,binding
1,"Spt6 (protein, UniProt P23615 1-1451) MEETGDSKLVPRDEEEIVNDNDETKAPSEEEEGEDVFDSSEEDEDIDEDEDEARKVQEGFIVNDDDENEDPGTSISKKRRKHKRREREEDDRLSEDDLDLLMENAGVERTKASSSSGKFKRLKRVGDEGNAAESESDNVAASRQDSTSKLEDFFSEDEEEEESGLRNGRNNEYGRDEEDHENRNRTADKGGILDELDDFIEDDEFSDEDDETRQRRIQEKKLLREQSIKQPTQITGLSSDKIDEMYDIFGDGHDYDWALEIENEELENGNDNNEAEEEEIDEETGAIKSTKKKISLQDIYDLEDLKKNLMTEGDMKIRKTDIPERYQELRAGITDYGNMSSEDQELERNWIAEKISVDKNFDANYDLTEFKEAIGNAIKFITKENLEVPFIYAYRRNYISSREKDGFLLTEDDLWDIVSLDIEFHSLVNKKDYVQRFYAELHIDDPIVTEYFKNQNTASIAELNSLQDIYDYLEFKYANEINEMFINHTGKTGKKHLKNSSYEKFKASPLYQAVSDIGISAEDVGENISSQHQIHPPVDHPSSKPVEVIESILNANSGDLQVFTSNTKLAIDTVQKYYSLELSKNTKIREKVRSDFSKYYLADVVLTAKGKKEIQKGSLYEDIKYAINRTPMHFRRDPDVFLKMVEAESLNLLSVKLHMSSQAQYIEHLFQIALETTNTSDIAIEWNNFRKLAFNQAMDKIFQDISQEVKDNLTKNCQKLVAKTVRHKFMTKLDQAPFIPNVRDPKIPKILSLTCGQGRFGADAIIAVYVNRKGDFIRDYKIVDNPFDKTNPEKFEDTLDNIIQSCQPNAIGINGPNPKTQKFYKRLQEVLHKKQIVDSRGHTIPIIYVEDEVAIRYQNSERAAQEFPNKPPLVKYCIALARYMHSPLLEYANLTSEEVRSLSIHPHQNLLSSEQLSWALETAFVDIVNLVSVEVNKATDNNYYASALKYISGFGKRKAIDFLQSLQRLNEPLLARQQLITHNILHKTIFMNSAGFLYISWNEKRQKYEDLEHDQLDSTRIHPEDYHLATKVAADALEYDPDTIAEKEEQGTMSEFIELLREDPDRRAKLESLNLESYAEELEKNTGLRKLNNLNTIVLELLDGFEELRNDFHPLQGDEIFQSLTGESEKTFFKGSIIPVRVERFWHNDIICTTNSEVECVVNAQRHAGAQLRRPANEIYEIGKTYPAKVIYIDYANITAEVSLLDHDVKQQYVPISYSKDPSIWDLKQELEDAEEERKLMMAEARAKRTHRVINHPYYFPFNGRQAEDYLRSKERGEFVIRQSSRGDDHLVITWKLDKDLFQHIDIQELEKENPLALGKVLIVDNQKYNDLDQIIVEYLQNKVRLLNEMTSSEKFKSGTKKDVVKFIEDYSRVNPNKSVYYFSLNHDNPGWFYLMFKINANSKLYTWNVKLTNTGYFLVNYNYPSVIQLCNGFKTLLKSNSSKNRMNNYR",binds
2,"Rxt2 (protein, UniProt P38255 1-430) MTIRSSMKNNAELESKSVLANESNIISTFTRRIIKEKSGNYQVLKRSLDGKLIYPEATGISSNRGNKLLQRSEVVTRRDLNNSKPMIEQTVFYNGSEHRLLQTNIVTDSRRKRIKFTPDINVEPVLVGDENDIDGSEKEDENITDEYYGEEDDDDLSKLVNVKEILTPILSLGDIINHKTISRTFSSPILKNLALQIILMIEKEQMSVVRYSQFLEVFLGDHPEPIYESNLNLPSYNHNLTLPEDRGASDEDDINNKNNINEVNSNSLSTEAGHINNGMEEFGEEDPFFALPRLEQSNALLSLLPSSSGSASISTLTAAEQQQLNEEIESARQLSQIALQRNKEFIRNLQKIRKSVIKANRIRGRILNWSREYLGISDDDITIPVALRVVKRGLISATTNKTTNFEEEIENTMEDGVVDDNEPDEEANRA",binds
